This passage reports binding results from publication PMC2590617.

Protein sequences, listed by entry. Tags and fused reporters are not part of them. Residues count along the entry.
UniProt O14763, residues 56-440: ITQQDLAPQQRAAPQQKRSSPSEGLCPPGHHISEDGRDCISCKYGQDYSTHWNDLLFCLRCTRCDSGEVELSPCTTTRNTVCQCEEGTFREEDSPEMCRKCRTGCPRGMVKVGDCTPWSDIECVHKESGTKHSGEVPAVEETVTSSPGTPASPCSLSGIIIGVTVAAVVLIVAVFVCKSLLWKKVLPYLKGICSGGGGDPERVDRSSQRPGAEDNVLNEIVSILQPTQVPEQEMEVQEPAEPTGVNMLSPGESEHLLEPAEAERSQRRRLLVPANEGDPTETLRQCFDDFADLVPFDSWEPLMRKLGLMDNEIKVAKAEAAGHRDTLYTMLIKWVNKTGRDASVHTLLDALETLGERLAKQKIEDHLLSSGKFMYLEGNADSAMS
UniProt Q13158: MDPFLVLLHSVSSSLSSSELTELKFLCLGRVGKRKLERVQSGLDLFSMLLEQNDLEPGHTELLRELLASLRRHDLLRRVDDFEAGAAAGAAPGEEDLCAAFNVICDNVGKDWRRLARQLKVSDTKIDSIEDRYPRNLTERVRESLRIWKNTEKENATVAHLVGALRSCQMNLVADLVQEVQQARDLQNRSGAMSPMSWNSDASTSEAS
UniProt P08581, residues 25-1390: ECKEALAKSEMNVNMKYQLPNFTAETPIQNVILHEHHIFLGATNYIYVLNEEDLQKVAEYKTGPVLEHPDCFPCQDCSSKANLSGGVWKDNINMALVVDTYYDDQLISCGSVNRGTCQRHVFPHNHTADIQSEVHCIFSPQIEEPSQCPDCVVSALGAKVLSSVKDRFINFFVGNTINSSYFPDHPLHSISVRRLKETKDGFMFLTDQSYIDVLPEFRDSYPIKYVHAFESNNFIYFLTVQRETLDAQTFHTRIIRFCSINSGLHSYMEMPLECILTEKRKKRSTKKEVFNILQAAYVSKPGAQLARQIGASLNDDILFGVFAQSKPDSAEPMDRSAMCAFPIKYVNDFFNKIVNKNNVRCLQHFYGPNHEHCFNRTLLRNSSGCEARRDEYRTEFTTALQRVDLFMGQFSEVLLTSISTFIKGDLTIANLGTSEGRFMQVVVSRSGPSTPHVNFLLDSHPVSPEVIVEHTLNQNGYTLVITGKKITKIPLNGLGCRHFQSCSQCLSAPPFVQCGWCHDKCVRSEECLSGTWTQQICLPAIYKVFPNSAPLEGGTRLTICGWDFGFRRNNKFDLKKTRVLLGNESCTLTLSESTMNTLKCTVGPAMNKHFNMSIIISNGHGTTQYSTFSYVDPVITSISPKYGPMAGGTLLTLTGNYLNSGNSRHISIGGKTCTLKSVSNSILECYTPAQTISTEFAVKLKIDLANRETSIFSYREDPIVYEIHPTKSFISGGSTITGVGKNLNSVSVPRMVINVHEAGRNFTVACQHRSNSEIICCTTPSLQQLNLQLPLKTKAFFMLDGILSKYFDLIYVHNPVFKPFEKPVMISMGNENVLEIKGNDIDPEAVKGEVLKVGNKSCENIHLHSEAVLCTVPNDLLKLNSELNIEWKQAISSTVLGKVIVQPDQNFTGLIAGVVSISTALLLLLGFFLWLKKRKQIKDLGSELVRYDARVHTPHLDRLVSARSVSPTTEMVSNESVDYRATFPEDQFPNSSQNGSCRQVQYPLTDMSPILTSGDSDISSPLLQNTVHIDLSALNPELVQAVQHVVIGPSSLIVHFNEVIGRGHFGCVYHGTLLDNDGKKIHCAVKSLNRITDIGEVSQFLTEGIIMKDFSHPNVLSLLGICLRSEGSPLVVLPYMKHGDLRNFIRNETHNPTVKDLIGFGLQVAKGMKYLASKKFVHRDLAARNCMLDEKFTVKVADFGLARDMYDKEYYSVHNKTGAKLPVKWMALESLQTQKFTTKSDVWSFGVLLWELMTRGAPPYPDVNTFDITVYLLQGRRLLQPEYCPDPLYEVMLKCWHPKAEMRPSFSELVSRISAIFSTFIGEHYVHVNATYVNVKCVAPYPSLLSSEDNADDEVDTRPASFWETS

This experiment deals with death receptor DR5, tumor necrosis factor receptor superfamily member 10b (TNFRSF10B) (human (endogenous in DAOY)) (UniProt O14763). The experiment is described as follows: co-IP; DAOY cells pre-treated with HGF for 72 h, then TRAIL for 2 h; 500 ug total protein in lysis buffer (100 mM Tris-HCl, 5 uM EDTA, 1% NP-40) with 5 ug anti-DR5 antibody at 4°C, protein A/G beads overnight, 5 washes; Western blot for caspase 8, FLIP, FADD, c-Met and DR5.

Results are given in words; binding and its absence hold for the method and conditions named. In cells and extracts the contact can be indirect. Some results given as binding are weak or reduced against the parent protein; the word gives no strength.

Consider “Fas-associated death domain (FADD) (from UniProt Q13158 1-208)”, for which the binding entry was “binds”.
As for “c-Met, receptor of hepatocyte growth factor, transmembrane tyrosine kinase (from UniProt P08581 25-1390)”, the entry is “no binding”.
